Data from US20050119176A1 (BURNHAM INSTITUTE, published 2005).
No constants are given. Whether binding was seen depends on the method and setting. Some binding calls cover weakened binding; strength is not graded here.

By UniProt entry, the sequences of proteins in these tests, tags left out. Residues count along the entry.
UniProt P98170, residues 124-240: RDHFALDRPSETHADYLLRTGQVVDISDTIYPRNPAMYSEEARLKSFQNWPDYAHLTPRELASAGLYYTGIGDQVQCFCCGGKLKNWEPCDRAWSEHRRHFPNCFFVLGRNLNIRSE

Molecular target: GST-BIR2 (glutathione-S-transferase-BIR2 fusion protein) (human) (UniProt P98170)
Experiment: plate assay: biotinylated peptide on Neutravidin, GST-XIAP BIR2 added, anti-GST detection, FIG. 45I

B1: biotinylated SMAC 7-mer peptide (peptide)
peptide: AVPIAQK
modifications: biotin, position not stated
**Q.** Which binding does the source give for B1 here?
**A.** binds
